Where a chain is given by its changes, count along the chain named. Numbers in names are those of the source. No constants are given. Whether binding was seen depends on the method and setting. Some results given as binding are weak or reduced against the parent protein; the word gives no strength.
How the values were obtained:
[1] = target: T1, human CD200R1 on cells (HH, Jurkat-CD200R1, U937-CD200R1) (human) (UniProt Q8TD46); assay: flow cytometry, IgG1 form at 500 nM, HH and Jurkat-CD200R1 cells
T1 sequence (looked up): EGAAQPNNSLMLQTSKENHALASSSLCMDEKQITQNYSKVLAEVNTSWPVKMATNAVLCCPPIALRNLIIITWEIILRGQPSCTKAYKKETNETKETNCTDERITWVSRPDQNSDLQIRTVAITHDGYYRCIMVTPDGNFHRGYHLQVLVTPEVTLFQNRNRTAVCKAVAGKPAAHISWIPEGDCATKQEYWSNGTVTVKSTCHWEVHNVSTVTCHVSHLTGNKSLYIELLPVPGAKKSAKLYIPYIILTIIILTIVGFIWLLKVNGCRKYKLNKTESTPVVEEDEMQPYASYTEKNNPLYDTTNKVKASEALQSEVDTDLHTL

[2] = target: T1, human CD200R1 on cells (HH, Jurkat-CD200R1, U937-CD200R1) (human); assay: cell binding assay (FACS), HH cells
[3] = target: T2, human CD200R1 recombinant protein (human) (UniProt Q8TD46); assay: antigen binding assay (ELISA) on human CD200R1
T2 sequence (looked up): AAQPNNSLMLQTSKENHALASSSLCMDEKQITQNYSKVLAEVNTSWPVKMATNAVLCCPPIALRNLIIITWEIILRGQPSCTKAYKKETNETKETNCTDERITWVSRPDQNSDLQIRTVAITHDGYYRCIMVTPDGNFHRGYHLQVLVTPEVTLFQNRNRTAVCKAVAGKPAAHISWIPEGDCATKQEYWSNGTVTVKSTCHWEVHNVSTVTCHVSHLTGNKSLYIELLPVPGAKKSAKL

[4] = target: T2, human CD200R1 recombinant protein (human); assay: ELISA
[5] = target: T1, human CD200R1 on cells (HH, Jurkat-CD200R1, U937-CD200R1) (human); assay: flow cytometry on CD200R1-expressing cells
[6] = target: T1, human CD200R1 on cells (HH, Jurkat-CD200R1, U937-CD200R1) (human); assay: flow cytometry, IgG4 and LALAPG forms, HH and Jurkat-CD200R1 cells
[7] = target: T2, human CD200R1 recombinant protein (human); assay: ELISA on human CD200R1 recombinant protein

B1: ch6C3 (antibody, V domains shown)
VH: QVQLQQPGAELVRPGASVKLSCKASAYTFTSYWMNWVKQRPEQGLEWIGRIDPYDSETHYNQKFKDKAILTVDKSSSTAYMQLSSLTSEDSAVYYCARVDGNHLFDYWGQGTTLTVSS
VL: DIKMTQSPSSMYASLGERVTITCKASQDINSYLSWFQQKPGKSPKTLIYRANRLVDGVPSRFSGSGSGQDYSLTISSLEYEDMGIYYCLQYDEFPYTFGGGTKLEIK
binding [1]: binds

B2: H3-Y102K scFv (scFv)
scFv: QVQLVQSGAEVKKPGASVKVSCKASGYTFTSYVMHWVRQAPGQGLEWMGYINPYNDDTNYNEKFKGRVTMTRDTSTSTVYMELSSLRSEDTAVYYCAREDYYGSRWGKWGQGTLVTVSSGGGGSGGGGSGGGGSDIVLTQSPASLAVSPGQRATITCRASKSVSTSGYSYMHWYQQKPGQPPKLLIYLASNLESGVPARFSGSGSGTDFTLTINPVEANDTANYYCQHSRELLTFGQGTKVEIK
binding [2]: binds
binding [3]: binds

B3: H3-Y102T scFv (scFv)
scFv: B2 scFv with K108T
binding [2]: binds
binding [3]: binds

B4: ch1F1 (antibody, V domains shown)
VH: QVQLQQPGAEFVKPGAPVKLSCKASGYTFTSYWMNWVKQRPGRGLEWIGRIDPADSEIHYNQKFKDKATLTVDKSSSTAYIQFSSLTSEDSAVYYCARSGGWLPGFAYWGQGTLVTVSA
VL: ENVLTQSPAIMSASPGEKVTMTCSASSSLIYMHWYQQKSSTSPKLWIYDTSKLASGVPGRFSGSGSGNSYSLTINSMEAEDVATYYCFQGSGYPLMYTFGGGTKLEIK
binding [1]: binds

B5: P001009v1 (antibody, V domains shown)
VH: EVQLLESGGGLVQPGGSLRLSCAASGFTFSSYDMSWVRQAPGKGLEWVSWISHGGGSIYYADSVKGRFTISRDNSKNTLYLQMNSLRAEDTAVYYCARDAPAYSAPLFDYWGQGTLVTVSS
VL: QSVLTQPPSASGTPGQRVTISCSGSSSNIGNNAVNWYQQLPGTAPKLLIYYDKNRPSGVPDRFSGSKSGTSASLAISGLRSEDEADYYCAAWDDRLSGYVFGGGTKLTVL
binding [4]: binds
binding [5]: binds

B6: P001008 (antibody, V domains shown)
VH: B5 VH with Y103L, S104M, A105H, P106S
VL: B5 VL with N31S, A33H, K53S, N54Q, A90G, A91S, D94A, R95S, S97N
binding [6]: binds

B7: P001009v2 (antibody, V domains shown)
VH: B5 VH
VL: B5 VL with D94R, R95S
binding [4]: binds
binding [5]: binds

B8: P001018v1 (antibody, V domains shown)
VH: QVQLVQSGAEVKKPGASVKVSCKASGYTFTSYVMHWVRQAPGQGLEWMGYINPYNDDTNYNEKFKGRVTMTRDTSTSTVYMELSSLRSEDTAVYYCAREDYYGSRWGKWGQGTLVTVSS
VL: DIVLTQSPASLAVSPGQRATITCRASKSVSTSGYSYMHWYQQKPGQPPKLLIYLASNLESGVPARFSGSGSGTDFTLTINPVEANDTANYYCQHSRELLTFGQGTKVEIK
binding [7]: binds

B9: P001018v6 (antibody, V domains shown)
VH: B8 VH with K108T
VL: B8 VL
binding [7]: binds

B10: P001018v236 (antibody, V domains shown)
VH: B8 VH with K108T
VL: B8 VL with R96H, L99D
binding [7]: binds

B11: P001018v26 (antibody, V domains shown)
VH: B8 VH with K108T
VL: B8 VL with R96H
binding [7]: binds

B12: P001018v2356 (antibody, V domains shown)
VH: B8 VH with K108T
VL: B8 VL with R96H, L99D, T100R
binding [7]: binds

B13: P001018v36 (antibody, V domains shown)
VH: B8 VH with K108T
VL: B8 VL with L99D
binding [7]: binds

B14: P001006 (antibody, V domains shown)
VH: EVQLLESGGGLVQPGGSLRLSCAASGFTFSDYAMSWVRQAPGKGLEWVSGISYGNGNTYYADSVKGRFTISRDNSKNTLYLQMNSLRAEDTAVYYCAKDPWQTAINDFDYWGQGTLVTVSS
VL: QSVLTQPPSASGTPGQRVTISCTGSSSNIGNNSVNWYQQLPGTAPKLLIYTNSHRPSEVPDRFSGSKSGTSASLAISGLRSEDEADYYCGTWDSSLSGYVFGGGTKLTVL
binding [6]: binds

Reference: patent publication EP4722249A1 (AIMED BIO INC., dated 2026)
